Publication PMC12040169 (PLOS Biology, 2025)
The other results are listed elsewhere or left out.

test system: T1, CTL2-GFP (C. trachomatis L2/434/Bu, GFP-expressing); parameters: species or system HeLa; Intracellular C. trachomatis growth in HeLa cells, bulk GFP fluorescence relative to DMSO; details: bulk GFP, single well; 28.5 h, 10 µM; inhibitor
T1 construct: L2/434/Bu, GFP-expressing

Row | SMILES | % of control remaining [%]
1 | C=CCn1c(SC(C)C(=O)O)nnc1-c1ccc(OC)cc1 (stereo not shown) [CBK268958] | 153.778
2 | O=C(Nc1ccc([C@@H](O)[C@H]2COCC(=O)N2Cc2ccccc2F)cc1)c1cnccn1 [CBK289060] | 158.514
3 | CC1CN(Cc2nc3c(c(=O)[nH]c(=O)n3C)n2Cc2cccc(Cl)c2)CC(C)O1 (stereo not shown) [CBK269450] | 66.8111
4 | Cc1ccc(OCc2ccccc2)c(Br)c1 [CBK002833] | 122.638
5 | c1csc(CN2CCNCC2)c1 [CBK027324] | 110.629
6 | CS(=O)(=O)N1CCc2cc(C(=O)Cn3nc(C(=O)O)c4ccccc4c3=O)ccc21 [CBK297000] | 169.332
7 | N#CC(c1ccc(Br)cc1)n1ccnc1 (stereo not shown) [CBK009985] | 126.988
8 | COC(=O)c1ccc(NC(=O)CCN2C(=O)c3cccc([N+](=O)[O-])c3C2=O)cc1 [CBK263137] | 90.7614
9 | CC(=O)C12CCCCC1CC1C3CC(C)C4(O)CC(O)CCC4(C)C3CCC12C (stereo not shown) [CBK261479] | 103.999
10 | O=S(=O)(c1sccc1F)N1CCOCC1c1cccc(F)c1 (stereo not shown) [CBK304730] | 132.957
11 | Cc1cc(C[C@@H]2COC[C@H]2NCc2ccc(C(F)(F)F)cc2)on1 [CBK285463] | 96.3008
12 | CC(=O)N1N=C(COc2ccc3c(c2)OCO3)OC1c1ccc(C)cc1 (stereo not shown) [CBK294397] | 166.389
13 | O=C(O)C1=CC(c2ccccc2)=NS(=O)(=O)N1 [CBK286828] | 85.455
14 | O=C1Cc2cc3ccccc3cc2C2(CCN(C(=O)C3CCC3C(=O)O)CC2)N1 (stereo not shown) [CBK047252] | 111.288
15 | Cc1nc2ccc(C(=O)NCCN3CCc4ccccc43)cc2[nH]1 [CBK283280] | 124.215
16 | OC1(c2nnsc2-c2ccccc2)CCCC1 [CBK007956] | 103.447
17 | COc1ccccc1CNC(=O)c1ccc(=O)[nH]c1 [CBK288133] | 111.562
18 | Cc1cc(C)n(CC(=O)NCC(c2cccs2)N2CCOCC2)n1 (stereo not shown) [CBK305620] | 132.112
19 | O=C(NC1CCCCC1)[C@H]1CN2CCC1C[C@@H]2Cn1cc(CO)nn1 (stereo partly shown) [CBK289086] | 127.417
20 | O=C(NCCSCc1ccco1)C1CCC1 [CBK057516] | 100.328
21 | CCN(CC)CCNC(=O)c1ccc(C(=O)O)c(C)n1 [CBK304248] | 107.857
22 | COc1ccc(OCCN(C)c2cnn(-c3ccc(C(=O)O)cc3)c(=O)c2Cl)cc1 [CBK296627] | 136.8
23 | O=C(c1ccco1)N1C2CCC1CC(O)(c1cccnc1F)C2 (stereo not shown) [CBK284417] | 118.15
24 | Cc1[nH]c(=O)[nH]c1C(=O)CCCCC(=O)O [CBK263197] | 116.736
25 | Cc1cc(=O)c2ccccc2n1CC(=O)N1CCNC(=O)C1C (stereo not shown) [CBK306511] | 130.686
26 | Cc1csc(C(Cc2cccs2)NCC2CCOC2)n1 (stereo not shown) [CBK285051] | 106.484
27 | NC(=O)CN1CC2(CCN(CC(=O)Nc3ccc(F)c(Cl)c3)CC2)c2ccccc21 [CBK126790] | 99.8449

Row | SMILES | % of control remaining [%]
28 | O=C(CCC(=O)c1ccccc1)Nc1ccccc1N1CCNCC1 [CBK028284T] | 115.233
29 | CCOC(=O)c1sc2ccc(NC(C)=O)cc2c1C [CBK021052] | 148.525
30 | O=C(Nc1ccccc1-c1nc2ccccc2[nH]1)c1ccc2c(c1)OCCO2 [CBK293924] | 171.459
31 | O=C(Nc1cccc(C(F)(F)F)c1)N1CCN(CCCCc2ccc(F)cc2)CC1 [CBK013363C] | 123.437
32 | CCOc1ccc(-c2c(C3CC3)n[nH]c2N)cc1OCC [CBK288177] | 99.0662
33 | Cc1nc(-c2ccccc2)c(CC(=O)NC2CCCOC2)s1 (stereo not shown) [CBK282586] | 86.2229
34 | O=C(NCC1CCCO1)c1ccc(NC(=O)C2CC=CCC2C(=O)O)cc1 (stereo not shown) [CBK266335] | 221.275
35 | c1csc(CCN2CCC3(C2)NCCc2c3[nH]c3ccccc23)c1 (stereo not shown) [CBK040196] | 135.436
36 | O=C(O)C(Cc1ccccc1)N1C(=O)/C(=C/C(Cl)=C/c2ccc([N+](=O)[O-])cc2)SC1=S (stereo not shown) [CBK263523] | 115.184
37 | O=C(Cn1cccn1)NC(Cc1cccs1)c1nccs1 (stereo not shown) [CBK285136] | 111.779
38 | Cc1c(C(=O)N2CCCCC2CN2CCOCC2)[nH]c2c(F)cccc12 (stereo not shown) [CBK306751] | 93.969
39 | Clc1ccc(-c2cc(NC3CCCCC3)ncn2)cc1 [CBK090902] | 176.458
40 | COc1cc(/C=C2/S/C(=N\c3ccccc3)NC2=O)ccc1OCc1ccccc1[N+](=O)[O-] [CBK262165] | 100
41 | CC(=O)Nc1cccc(Oc2nccnc2-c2ccc(C)cc2C)c1 [CBK106986] | 73.3448
42 | O=C(NC1CCCC1)c1ccc(Cl)cc1Cl [CBK002108] | 118.611
43 | Oc1ccc(C2N=C(c3ccccc3)N=C(c3ccccc3)N2)cc1 (stereo not shown) [CBK018755] | 121.107
44 | CC(=O)Nc1ccc(NC(=O)c2cnc(-c3cccc(C)c3)c(-c3ccncc3)c2)cc1C(F)(F)F [CBK036660] | 162.74
45 | COc1ccc(-c2cc3ccc(OC(C)C(=O)O)cc3oc2=O)cc1 (stereo not shown) [CBK267947] | 99.3237
46 | O=c1[nH]c(=O)c2cc(S(=O)(=O)NC(c3ccccc3)c3ccccc3)ccc2[nH]1 [CBK286375] | 102.827
47 | Cc1nc[nH]c1CN(Cc1cccc(F)c1)CC1CCCO1 (stereo not shown) [CBK282525] | 136.698
48 | CC(=O)NCC1CCC(C(NC(=O)C2CC2)c2ccccn2)CC1 (stereo not shown) [CBK283000] | 112.865
49 | CCCn1cc(NC(=O)NC(C)(CC)CO)ccc1=O (stereo not shown) [CBK304864] | 121.549
50 | Fc1ccc(COc2ccc3ccccc3c2CNc2nn[nH]n2)cc1 [CBK268211] | 117.89
51 | CC(C)n1cc(C(=O)N2CCC(c3cc4ncccc4[nH]3)CC2)cn1 [CBK283392] | 119.618
52 | CSc1nc(N)cc(N2CCN(C(=O)OC(C)(C)C)CC2)n1 [CBK003458] | 95.0425
53 | NS(=O)(=O)c1ccc(NC(=S)NNC(=O)C2c3ccccc3Oc3ccccc32)cc1 [CBK267024] | 129.676
54 | Cc1ccc(C(=O)NCCN2CCOCC2)c(N2CCOCC2)n1 [CBK106201] | 165

Row | SMILES | % of control remaining [%]
55 | Cc1cc(C(=O)NC2(C#N)CCSCC2)n(C)n1 [CBK306386] | 120.596
56 | COc1cc2c(cc1OC)CN(C(=O)Cc1ccccc1)CC2 [CBK122751] | 119.366
57 | CN(C)CCC1OC(=O)N(c2ccccc2)C1=O (stereo not shown) [CBK010134C] | 124.545
58 | Cc1cc(Cl)cc(Cl)c1S(=O)(=O)Nc1nc(-c2cccc([N+](=O)[O-])c2)cs1 [CBK000902] | 115.852
59 | C=CCNC(=O)C1CC2CCC1(C)C[C@@]21NC(=O)c2ccccc2N1 (stereo partly shown) [CBK284442] | 119.865
60 | CCOc1cc(NC2CCN(C(=O)CC3(O)CCCCC3)CC2)ncn1 [CBK304141] | 112.446
61 | O=C(Nc1ccc(I)cc1C(=O)Nc1cccnc1)c1ccccc1Cl [CBK266154] | 102.721
62 | CC(C)CN1C(=O)COC[C@@H]1[C@H](O)c1ccc(NC(=O)c2cccnc2)cc1 [CBK289692] | 121.638
63 | CN(C)CCN(CC#Cc1ccccc1)CC#Cc1ccccc1 [CBK265035C] | 130.899
64 | CN1C(=O)C2(CC(=O)N(CC3CCCCC3)C2=O)c2cc(F)ccc21 (stereo not shown) [CBK075257] | 104.403
65 | COc1cccc(CC(=O)N2CCC(Cc3ccc(-c4ccccc4)cc3)(C(N)=O)CC2)c1 [CBK285776] | 118.942
66 | COc1ccccc1NC(=O)N(CC(C)C)CC(C)C [CBK005456] | 106.685
67 | O=C1CCC(=O)N1CCOc1nccnc1N1CCN(Cc2ccccc2F)CC1 [CBK084289] | 116.875
68 | C=CCOc1cccn2c(N(C=O)Cc3ccccc3)c(CC)nc12 [CBK147827] | 100.716
69 | CC(C)(C)c1cc(/C=N/Nc2nc3ccccc3[nH]2)cc(C(C)(C)C)c1O [CBK262247] | 66.6906
70 | Cc1cccc(C2CCCN(C(=O)Nc3cnn(C)c3)C2)c1 (stereo not shown) [CBK306961] | 105.255
71 | CCn1ncc(CN2CCCC(c3cc4cccnc4[nH]3)C2)c1C (stereo not shown) [CBK284700] | 122.229
72 | CN1CCC(=NNC(=O)c2ccc(CN(c3ccccc3)S(C)(=O)=O)cc2)CC1 [CBK262728] | 104.945
73 | Cc1ccc(NC(=O)c2ccc3c(c2)C(=O)N(c2cccc(N4C(=O)c5ccc(C(=O)Nc6ccc(C)cc6)cc5C4=O)n2)C3=O)cc1 [CBK261198] | 99.2507
74 | CN1CC[C@@]2(c3cc(F)cc(F)c3)CCC(=O)CC12 (stereo partly shown) [CBK002500] | 88.1776
75 | Cc1c(NS(=O)(=O)c2cc(C(=O)O)c(Cl)cc2Cl)c(=O)n(-c2ccccc2)n1C [CBK296123] | 141.391
76 | COCOc1ccc(-c2nc(-c3cccc(NS(C)(=O)=O)c3)cnc2N)cc1 [CBK063985] | 87.161
77 | c1ccc(CCN2CCC(Oc3nccnc3OCCN3CCOCC3)CC2)nc1 [CBK082944] | 113.316
78 | CC(C)(C)c1nnc([C@H]2CCN(C(=O)CCC(=O)O)C2)o1 [CBK289406] | 115.499
79 | N#CCCCN1CCN(c2nccnc2OCc2cccnc2)CC1 [CBK083144] | 89.2887

Another view of part of the listing above.
Row	SMILES	% of control remaining [%]
74	CN1CC[C@@]2(c3cc(F)cc(F)c3)CCC(=O)CC12 (stereo partly shown) [CBK002500]	88.1776
75	Cc1c(NS(=O)(=O)c2cc(C(=O)O)c(Cl)cc2Cl)c(=O)n(-c2ccccc2)n1C [CBK296123]	141.391
76	COCOc1ccc(-c2nc(-c3cccc(NS(C)(=O)=O)c3)cnc2N)cc1 [CBK063985]	87.161

3 compounds picked at random from those above, as already listed:
Row | SMILES | % of control remaining [%]
37 | O=C(Cn1cccn1)NC(Cc1cccs1)c1nccs1 (stereo not shown) [CBK285136] | 111.779
32 | CCOc1ccc(-c2c(C3CC3)n[nH]c2N)cc1OCC [CBK288177] | 99.0662
43 | Oc1ccc(C2N=C(c3ccccc3)N=C(c3ccccc3)N2)cc1 (stereo not shown) [CBK018755] | 121.107
